# The supplement of paper PMC8728848
# This is one part of the list.
# B1: BT4246 (Bacteroides thetaiotaomicron), Q89ZX5 (protein)
# chain: MGSSHHHHHHENLYFQGHMASDYLDVVPPEQPNIDDAMSSPTRALGFLYSCYGGVSTDLPSAYLGEINSTTDEYVLPYSWNTDGYWGAYAFNTASSTNQDWLWGTTYQYIGQCYLFLQKLENAGSDIASDAEKEQWRAECQFLVAYYHFATLRRYGPIPITDSYIPMDTPTSEYNGRFHFDYCVDWIANQLDEAAKVLPANRTVTNEWGRATSTIAKAVKARLLLYAASPLWNGSFPYPNWQNENFETPGYGKALVSNTYDKSKWERALAACQEALTLATTSGDRELYDDDEYYSRQSLNLPFVPGVADVEDNKEFLKNVMKMRYAVSTRESEGNKEIIWGLSNQFDFYSRYPLRILKKSDGTWHAGYSGVSPTLYTFEHFYTANGKLPEKDLDFTPSSEWFESAGISSREDIIKLNVGREPRFYAWMAFDGGDYGTKFAAGSPLKLEMRNSEMHGYNPSLFNRDHSVTGFLTQKFVDPVTEFYTAGGSTSGTSAPTILFRLAELYLNVAECHAALGNTQEAIDALNPVRERAGIPKLTLADITNNMTIKDWVHNERFVELWNEGHRFFDVRRWAEGAKYFGANKREGLNAEVQSPTFEEFNKRTTVDAPYVWENRMYLNPVFYNEVYKNPQMVQAPGY
# Assays:
# Experiment in all cases: glycan array binding signal (z-score within array); higher = stronger binding
# Settings in all cases: glycan notation: IUPAC condensed, linker removed
# [1] = target: Man(a1-2)Man(a1-3)[Man(a1-2)Man(a1-6)]Man
# Summary of the method: (§1)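 The binding signal is a Z-score computed within each array. Data were drawn from 3228 arrays in the Consortium for Functional Glycomics database, restricted to those with a known protein sequence. Scores were averaged over arrays of the same protein sequence at different concentrations or buffers, and over linkers, and negative values can be taken as non-binding.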
# [2] = target: Man(a1-2)Man(a1-3)[Man(a1-2)Man(a1-6)]Man(a1-6)[Man(a1-2)Man(a1-2)Man(a1-3)]Man
# Summary of the method: as §1
# [3] = target: Man(a1-2)Man(a1-3)[Man(a1-2)Man(a1-6)]Man(a1-6)[Man(a1-2)Man(a1-2)Man(a1-3)]Man(b1-4)GlcNAc(b1-4)GlcNAc
# Summary of the method: as §1
# [4] = target: Man(a1-2)Man(a1-3)[Man(a1-6)]Man(a1-6)[Man(a1-2)Man(a1-3)]Man(b1-4)GlcNAc(b1-4)GlcNAc
# Summary of the method: as §1
# [5] = target: Man(a1-2)Man(a1-6)[Man(a1-3)]Man(a1-6)[Man(a1-2)Man(a1-2)Man(a1-3)]Man
# Summary of the method: as §1
# [6] = target: Man(a1-2)Man(a1-6)[Man(a1-3)]Man(a1-6)[Man(a1-2)Man(a1-2)Man(a1-3)]Man(b1-4)GlcNAc(b1-4)GlcNAc
# Summary of the method: as §1
# Man(a1-3)[Man(a1-6)]Man = target: Man(a1-3)[Man(a1-6)]Man
# Summary of the method: as §1
# [7] = target: Man(a1-3)[Man(a1-6)]Man(a1-6)[Man(a1-2)Man(a1-3)]Man(b1-4)GlcNAc(b1-4)GlcNAc
# Summary of the method: as §1
# [8] = target: Man(a1-3)[Man(a1-6)]Man(a1-6)[Man(a1-3)]Man
# Summary of the method: as §1
# [9] = target: Man(a1-3)[Man(a1-6)]Man(a1-6)[Man(a1-3)]Man(b1-4)GlcNAc(b1-4)GlcNAc
# Summary of the method: as §1
# [10] = target: Man(a1-3)[Man(a1-6)]Man(b1-4)GlcNAc(b1-4)GlcNAc
# Summary of the method: as §1
# [11] = target: Man(a1-3)[Man(a1-6)]Man(b1-4)GlcNAc(b1-4)[Fuc(a1-6)]GlcNAc
# Summary of the method: as §1
# Man(a1-6)Man = target: Man(a1-6)Man
# Summary of the method: as §1
# Man(b1-4)GlcNAc = target: Man(b1-4)GlcNAc
# Summary of the method: as §1
# MurNAc(b1-4)GlcNAc = target: MurNAc(b1-4)GlcNAc
# Summary of the method: as §1
# Neu5Ac(a2-3)Gal = target: Neu5Ac(a2-3)Gal
# Summary of the method: as §1
# [12] = target: Neu5Ac(a2-3)Gal(b1-3)GalNAc
# Summary of the method: as §1
# [13] = target: Neu5Ac(a2-3)Gal(b1-3)GalNAc(b1-3)Gal(a1-4)Gal(b1-4)Glc
# Summary of the method: as §1
# [14] = target: Neu5Ac(a2-3)Gal(b1-3)GalNAc(b1-4)Gal(b1-4)Glc
# Summary of the method: as §1
# [15] = target: Neu5Ac(a2-3)Gal(b1-3)GalNAc(b1-4)[Neu5Ac(a2-3)]Gal(b1-4)Glc
# Summary of the method: as §1
# [16] = target: Neu5Ac(a2-3)Gal(b1-3)GalNAc(b1-4)[Neu5Ac(a2-8)Neu5Ac(a2-3)]Gal(b1-4)Glc
# Summary of the method: as §1
# [17] = target: Neu5Ac(a2-3)Gal(b1-3)GalNAc6S
# Summary of the method: as §1
# [18] = target: Neu5Ac(a2-3)Gal(b1-3)GlcNAc
# Summary of the method: as §1
# [19] = target: Neu5Ac(a2-3)Gal(b1-3)GlcNAc(b1-2)Man
# Summary of the method: as §1
# [20] = target: Neu5Ac(a2-3)Gal(b1-3)GlcNAc(b1-2)Man(a1-3)[GlcNAc(b1-4)][Neu5Ac(a2-3)Gal(b1-3)GlcNAc(b1-2)Man(a1-6)]Man(b1-4)GlcNAc(b1-4)GlcNAc
# Summary of the method: as §1
# [21] = target: Neu5Ac(a2-3)Gal(b1-3)GlcNAc(b1-2)Man(a1-3)[Neu5Ac(a2-3)Gal(b1-3)GlcNAc(b1-2)Man(a1-6)]Man(b1-4)GlcNAc(b1-4)GlcNAc
# Summary of the method: as §1
# [22] = target: Neu5Ac(a2-3)Gal(b1-3)GlcNAc(b1-2)[Neu5Ac(a2-3)Gal(b1-3)GlcNAc(b1-4)]Man(a1-6)[Neu5Ac(a2-3)Gal(b1-3)GlcNAc(b1-2)Man(a1-3)]Man(b1-4)GlcNAc(b1-4)GlcNAc
# Summary of the method: as §1
# [23] = target: Neu5Ac(a2-3)Gal(b1-3)GlcNAc(b1-3)Gal(b1-3)GlcNAc
# Summary of the method: as §1
# [24] = target: Neu5Ac(a2-3)Gal(b1-3)GlcNAc(b1-3)Gal(b1-4)GlcNAc
# Summary of the method: as §1
# [25] = target: Neu5Ac(a2-3)Gal(b1-3)GlcNAc(b1-3)GalNAc
# Summary of the method: as §1
binder,measurement,setting,value
B1,glycan array binding signal (z-score),[1],0.5
same,glycan array binding signal (z-score),[2],0.173
same,glycan array binding signal (z-score),[3],-0.169
same,glycan array binding signal (z-score),[4],0.406
same,glycan array binding signal (z-score),[5],-1.24
same,glycan array binding signal (z-score),[6],1.59
same,glycan array binding signal (z-score),Man(a1-3)[Man(a1-6)]Man,0.477
same,glycan array binding signal (z-score),[7],-0.545
same,glycan array binding signal (z-score),[8],3.62
same,glycan array binding signal (z-score),[9],-0.272
same,glycan array binding signal (z-score),[10],-0.585
same,glycan array binding signal (z-score),[11],-0.828
same,glycan array binding signal (z-score),Man(a1-6)Man,1.9
same,glycan array binding signal (z-score),Man(b1-4)GlcNAc,1.48
same,glycan array binding signal (z-score),MurNAc(b1-4)GlcNAc,-0.881
same,glycan array binding signal (z-score),Neu5Ac(a2-3)Gal,-0.128
same,glycan array binding signal (z-score),[12],-0.605
same,glycan array binding signal (z-score),[13],0.009
same,glycan array binding signal (z-score),[14],0.064
same,glycan array binding signal (z-score),[15],-1.5
same,glycan array binding signal (z-score),[16],-0.003
same,glycan array binding signal (z-score),[17],-0.19
same,glycan array binding signal (z-score),[18],0.325
same,glycan array binding signal (z-score),[19],0.585
same,glycan array binding signal (z-score),[20],-0.625
same,glycan array binding signal (z-score),[21],-0.445
same,glycan array binding signal (z-score),[22],1.75
same,glycan array binding signal (z-score),[23],-0.454
same,glycan array binding signal (z-score),[24],1.07
same,glycan array binding signal (z-score),[25],0.321

# Reformatted: results already given
binder | measurement | setting | value
B1 | glycan array binding signal (z-score) | MurNAc(b1-4)GlcNAc | -0.881
same | glycan array binding signal (z-score) | [16] | -0.003
